For three substances, binding results are on record in doi:10.1101/2021.08.06.455464.

The chains behind the UniProt entries cited, without tags or fusion partners. Where a name states a change or a piece, a line headed by the entry shows the natural chain unless it says otherwise.
UniProt Q13283, whole entry, stated change not applied: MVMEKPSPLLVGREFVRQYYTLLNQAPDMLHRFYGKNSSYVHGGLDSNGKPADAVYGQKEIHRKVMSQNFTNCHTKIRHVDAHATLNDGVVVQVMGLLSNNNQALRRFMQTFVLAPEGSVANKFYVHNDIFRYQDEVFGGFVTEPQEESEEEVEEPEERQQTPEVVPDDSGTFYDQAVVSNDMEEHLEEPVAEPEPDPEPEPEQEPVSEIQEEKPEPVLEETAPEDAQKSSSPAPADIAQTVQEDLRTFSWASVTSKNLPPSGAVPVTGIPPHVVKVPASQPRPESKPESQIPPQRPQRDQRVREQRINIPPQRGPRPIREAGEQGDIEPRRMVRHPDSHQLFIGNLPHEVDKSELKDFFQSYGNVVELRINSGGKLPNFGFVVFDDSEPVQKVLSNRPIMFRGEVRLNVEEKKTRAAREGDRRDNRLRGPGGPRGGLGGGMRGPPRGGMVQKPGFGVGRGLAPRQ

In the assay the target is GFP-G3BP1 (Ras-GTPase activating SH3 domain binding protein 1) (UniProt Q13283). As to the kind of experiment: affinity purification with mass spectrometry.

No constants are given. Whether binding was seen depends on the method and setting. Binding seen in cells or lysates may run through a third protein. A yes stands for co-enrichment or nearness to the bait. Other partners may have been found.

In the case of DDX21 (from UniProt Q9NR30 1-783), the binding result is reported as “binds”. On to ELAVL1 (from UniProt Q15717 1-326), for which the binding entry is “binds”. The same measure for SRSF2 (from UniProt Q01130 1-221): “binds”.
